Results reported in patent US10022377B2, “Method of treating hypertension” (Cipla Limited, priority 2015, dated 2018).

System: rats with monocrotaline induced pulmonary arterial hypertension
Assay: Hemodynamic evaluation in anesthetized rats treated with monocrotaline to induce pulmonary arterial hypertension
Assay type: in vivo, Sprague-Dawley rats
Conditions: 28 days, MCT rats, mean ± SEM
Procedure: The effects of sildenafil and anagrelide were evaluated in rats with monocrotaline induced pulmonary arterial hypertension. Male Sprague-Dawley rats were orally administered vehicle (variable, see below), anagrelide (1 mg/kg given once daily for 28 days or 2 mg/kg total daily dose, divided into a BID regimen given every day for 28 days starting on Day 1), or sildenafil (30 mg/kg, administered twice daily) (n=10 in each group). Rats received a single injection of monocrotaline (60 mg/kg, s.c.) on Study Day 1. On the twenty-eighth day following monocrotaline dosing, the rats were anesthetized with ketamine/xylazine for terminal monitoring of pulmonary and systemic arterial pressures along with heart rate. The study design for the test article and vehicle administrations are detailed below: […]

Compound | Body Weight (Anagrelide 1 mg/kg once daily oral) | Body Weight (Anagrelide 2 mg/kg/day bid oral) | Body Weight (Sildenafil 60 mg/kg/day bid oral)
O=C1CN2Cc3c(ccc(Cl)c3Cl)N=C2N1 [Anagrelide, anagrelide] | 0.32 ± 0.02 kg | 0.31 ± 0.01 kg | –
CCCc1nn(C)c2c(=O)[nH]c(-c3cc(S(=O)(=O)N4CCN(C)CC4)ccc3OCC)nc12 [Sildenafil] | – | – | 0.32 ± 0.01 kg
